Reference: PMC3760765, “A Meiosis-Specific Form of the APC/C Promotes the Oocyte-to-Embryo Transition by Decreasing Levels of the Polo Kinase Inhibitor Matrimony” (PLoS Biology, 2013)

Target: T1, myc-tagged Cort expressed in ovaries (UASp-myc-cort transgene) (Drosophila melanogaster) (UniProt Q960N3)
T1 sequence: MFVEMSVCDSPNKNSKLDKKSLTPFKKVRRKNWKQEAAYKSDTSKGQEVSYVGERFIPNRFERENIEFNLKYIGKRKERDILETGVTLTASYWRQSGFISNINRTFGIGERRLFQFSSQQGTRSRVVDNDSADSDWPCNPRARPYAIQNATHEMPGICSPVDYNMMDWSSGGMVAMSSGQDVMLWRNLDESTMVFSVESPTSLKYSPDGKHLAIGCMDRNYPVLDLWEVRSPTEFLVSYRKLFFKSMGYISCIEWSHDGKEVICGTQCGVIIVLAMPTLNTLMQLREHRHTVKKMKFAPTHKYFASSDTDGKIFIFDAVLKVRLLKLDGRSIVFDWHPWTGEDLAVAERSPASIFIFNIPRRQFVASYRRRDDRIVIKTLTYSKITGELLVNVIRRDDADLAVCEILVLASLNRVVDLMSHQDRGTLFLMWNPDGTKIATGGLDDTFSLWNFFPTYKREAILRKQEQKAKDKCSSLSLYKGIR
Test: affinity purification with mass spectrometry; myc-Cort immunoprecipitated with anti-Myc 9E10 on Protein G magnetic beads from whole ovary extract, 3 h at 4°C; washes incl. IP buffer + 0.5 M NaCl; bands cut from silver-stained gel, LC-MS/MS; controls random mouse IgG or OrR ovaries

binding: binds
B1: Matrimony (Mtrm), endogenous in ovaries (protein, UniProt Q23973 1-217)
chain: MENSRTPTNKTKITLNRTPTLKERRWNTLKVNTSNVRCSTPIFGNFRSPNLSPIENMGTKGKSPVSPMRFATFKKVPTKVHPKQQQQQQHQHCHRTQLKPPPFVLPKPQEEIIEPEREIKSCSSPDTCSDDSNMETSLALESRRRSIKASNHSYVVNHAANVEQILMHMGLENYVTNFEEAHIDLVELASLERADLVKIGLNTDEDCNRIMDVLHTL

These are yes or no findings as the source states them, for the method shown. In cells and extracts the contact can be indirect. A yes stands for co-enrichment or nearness to the bait. Other partners may have been found. Tags and fused reporters may be left off the sequences shown.
